Data from article PMC10627786.
Results are given in words; binding and its absence hold for the method and conditions named. In cells and extracts the contact can be indirect. Here binding means that the protein was enriched with, or labelled near, the bait; the list need not be complete. No binding means not detected with the bait. Where a sequence is shown, tags or fusion partners need not be part of it.

Tests used:
[1] = target: T1, TEX2 fused with BirA*-FLAG (BioID bait) (human) (UniProt Q8IWB9); assay: proximity labelling; BioID in stable inducible Flp-In T-REx 293 cells expressing BirA*-FLAG baits; mass spectrometry of biotinylated preys; SAINTexpress, two biological replicates per bait, 50 negative control runs, BFDR threshold 1%
T1 sequence: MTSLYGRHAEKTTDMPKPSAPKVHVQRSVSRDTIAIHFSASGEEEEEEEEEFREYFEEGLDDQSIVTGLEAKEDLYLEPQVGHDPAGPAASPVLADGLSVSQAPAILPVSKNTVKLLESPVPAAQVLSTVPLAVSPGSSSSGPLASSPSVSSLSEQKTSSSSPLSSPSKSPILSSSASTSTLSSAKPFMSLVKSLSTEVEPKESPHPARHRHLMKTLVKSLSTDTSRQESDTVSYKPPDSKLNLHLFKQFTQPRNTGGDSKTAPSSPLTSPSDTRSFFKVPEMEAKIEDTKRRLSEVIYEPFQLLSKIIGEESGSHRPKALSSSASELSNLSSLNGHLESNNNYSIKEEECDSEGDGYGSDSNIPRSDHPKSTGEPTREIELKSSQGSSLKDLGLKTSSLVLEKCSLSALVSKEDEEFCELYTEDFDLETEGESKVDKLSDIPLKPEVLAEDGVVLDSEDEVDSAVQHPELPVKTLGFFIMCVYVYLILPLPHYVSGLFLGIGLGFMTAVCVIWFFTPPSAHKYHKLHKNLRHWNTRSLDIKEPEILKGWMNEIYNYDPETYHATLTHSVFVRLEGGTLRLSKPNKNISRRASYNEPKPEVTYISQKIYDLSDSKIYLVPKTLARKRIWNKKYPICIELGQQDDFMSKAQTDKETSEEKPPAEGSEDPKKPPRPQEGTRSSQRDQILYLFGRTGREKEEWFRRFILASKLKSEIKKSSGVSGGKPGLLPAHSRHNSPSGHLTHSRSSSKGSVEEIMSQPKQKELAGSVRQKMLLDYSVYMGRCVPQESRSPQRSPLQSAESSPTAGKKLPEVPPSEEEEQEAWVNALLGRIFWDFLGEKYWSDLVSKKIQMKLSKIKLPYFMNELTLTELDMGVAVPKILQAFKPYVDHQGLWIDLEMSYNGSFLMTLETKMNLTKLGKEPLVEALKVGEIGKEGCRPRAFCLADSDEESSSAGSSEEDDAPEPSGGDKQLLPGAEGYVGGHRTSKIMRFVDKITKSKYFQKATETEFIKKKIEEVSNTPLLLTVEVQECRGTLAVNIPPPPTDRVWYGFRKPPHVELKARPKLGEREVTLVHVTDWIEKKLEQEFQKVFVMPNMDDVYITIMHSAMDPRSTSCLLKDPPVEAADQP

[2] = target: T2, PDZD8 fused with BirA*-FLAG (BioID bait) (human) (UniProt Q8NEN9); assay: as above
T2 sequence: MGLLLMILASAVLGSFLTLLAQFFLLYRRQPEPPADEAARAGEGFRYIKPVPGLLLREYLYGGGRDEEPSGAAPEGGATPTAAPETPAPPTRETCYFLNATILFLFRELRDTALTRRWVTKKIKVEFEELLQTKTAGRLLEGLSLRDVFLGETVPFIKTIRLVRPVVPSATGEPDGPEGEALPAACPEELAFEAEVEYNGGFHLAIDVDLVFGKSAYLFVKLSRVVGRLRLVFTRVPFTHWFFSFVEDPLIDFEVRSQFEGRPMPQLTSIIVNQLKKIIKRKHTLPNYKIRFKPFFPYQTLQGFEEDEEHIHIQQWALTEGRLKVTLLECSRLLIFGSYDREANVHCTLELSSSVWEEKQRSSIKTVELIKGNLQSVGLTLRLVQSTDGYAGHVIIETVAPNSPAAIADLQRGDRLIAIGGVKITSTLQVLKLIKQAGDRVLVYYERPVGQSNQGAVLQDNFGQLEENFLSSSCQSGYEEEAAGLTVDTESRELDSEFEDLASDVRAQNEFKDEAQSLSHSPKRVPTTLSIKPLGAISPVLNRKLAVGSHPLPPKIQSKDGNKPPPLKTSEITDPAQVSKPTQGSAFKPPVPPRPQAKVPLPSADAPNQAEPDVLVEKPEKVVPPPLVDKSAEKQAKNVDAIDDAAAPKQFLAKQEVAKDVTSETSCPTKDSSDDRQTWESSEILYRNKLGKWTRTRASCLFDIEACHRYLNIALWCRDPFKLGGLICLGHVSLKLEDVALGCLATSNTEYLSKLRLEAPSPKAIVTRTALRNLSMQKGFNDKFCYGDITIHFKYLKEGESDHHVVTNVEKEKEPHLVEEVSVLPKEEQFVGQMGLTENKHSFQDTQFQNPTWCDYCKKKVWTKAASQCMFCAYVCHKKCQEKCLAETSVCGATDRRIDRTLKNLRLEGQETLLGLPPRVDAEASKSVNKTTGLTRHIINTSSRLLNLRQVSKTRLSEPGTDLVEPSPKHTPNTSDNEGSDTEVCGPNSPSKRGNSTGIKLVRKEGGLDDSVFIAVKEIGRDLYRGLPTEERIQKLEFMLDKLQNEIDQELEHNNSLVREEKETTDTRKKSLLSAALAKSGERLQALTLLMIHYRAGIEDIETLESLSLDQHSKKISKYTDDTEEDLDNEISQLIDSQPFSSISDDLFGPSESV

B1: SYNJ2BP (endogenous prey in BioID) (protein, UniProt P57105 1-145)
chain: MNGRVDYLVTEEEINLTRGPSGLGFNIVGGTDQQYVSNDSGIYVSRIKENGAAALDGRLQEGDKILSVNGQDLKNLLHQDAVDLFRNAGYAVSLRVQHRLQVQNGPIGHRGEGDPSGIPIFMVLVPVFALTMVAAWAFMRYRQQL
For B1, the binding [1] was “no binding” and the binding [2] was “no binding”.
